In the supplement of paper PMC6411743:
± gives the standard deviation of the averaged measurements. The list shows a part of the results.

Sequences of proteins named here, by UniProt entry; tags and fusion partners are left off. A change or cut given only in a name is not applied to a line headed by its entry.
UniProt Q9NZK5: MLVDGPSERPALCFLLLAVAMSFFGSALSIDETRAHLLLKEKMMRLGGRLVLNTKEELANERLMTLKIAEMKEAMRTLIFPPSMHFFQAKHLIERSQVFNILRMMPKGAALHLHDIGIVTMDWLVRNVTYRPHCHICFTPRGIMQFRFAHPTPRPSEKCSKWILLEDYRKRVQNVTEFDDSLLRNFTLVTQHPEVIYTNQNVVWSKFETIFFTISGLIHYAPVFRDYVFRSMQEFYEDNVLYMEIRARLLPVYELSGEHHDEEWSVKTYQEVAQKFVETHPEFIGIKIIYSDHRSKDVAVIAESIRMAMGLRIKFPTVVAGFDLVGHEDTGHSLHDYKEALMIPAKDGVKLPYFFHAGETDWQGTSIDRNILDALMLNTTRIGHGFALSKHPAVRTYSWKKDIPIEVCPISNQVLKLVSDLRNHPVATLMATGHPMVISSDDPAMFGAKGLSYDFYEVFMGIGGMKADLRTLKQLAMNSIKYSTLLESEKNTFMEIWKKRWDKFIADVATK
UniProt Q9NTJ5: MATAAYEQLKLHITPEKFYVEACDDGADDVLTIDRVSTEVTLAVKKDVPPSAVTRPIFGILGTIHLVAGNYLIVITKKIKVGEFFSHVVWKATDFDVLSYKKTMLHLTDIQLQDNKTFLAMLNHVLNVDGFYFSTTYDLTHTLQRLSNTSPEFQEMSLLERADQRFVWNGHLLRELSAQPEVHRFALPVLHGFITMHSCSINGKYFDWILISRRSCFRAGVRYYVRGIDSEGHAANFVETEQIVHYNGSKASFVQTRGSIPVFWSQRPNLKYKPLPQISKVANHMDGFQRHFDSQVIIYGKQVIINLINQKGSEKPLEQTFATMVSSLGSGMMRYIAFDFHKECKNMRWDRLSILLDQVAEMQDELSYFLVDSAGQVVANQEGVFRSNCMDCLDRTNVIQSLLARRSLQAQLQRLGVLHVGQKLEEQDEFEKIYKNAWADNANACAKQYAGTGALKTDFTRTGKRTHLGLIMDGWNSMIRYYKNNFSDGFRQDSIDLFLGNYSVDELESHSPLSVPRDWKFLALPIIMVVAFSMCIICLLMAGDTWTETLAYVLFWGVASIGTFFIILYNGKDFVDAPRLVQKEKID
UniProt Q96MF7: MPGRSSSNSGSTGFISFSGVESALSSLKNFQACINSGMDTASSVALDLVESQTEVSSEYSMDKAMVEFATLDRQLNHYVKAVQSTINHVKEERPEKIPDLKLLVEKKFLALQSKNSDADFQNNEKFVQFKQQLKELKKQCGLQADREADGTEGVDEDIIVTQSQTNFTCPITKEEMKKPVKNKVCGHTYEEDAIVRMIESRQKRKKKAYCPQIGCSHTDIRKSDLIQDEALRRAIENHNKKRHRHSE
UniProt Q16851: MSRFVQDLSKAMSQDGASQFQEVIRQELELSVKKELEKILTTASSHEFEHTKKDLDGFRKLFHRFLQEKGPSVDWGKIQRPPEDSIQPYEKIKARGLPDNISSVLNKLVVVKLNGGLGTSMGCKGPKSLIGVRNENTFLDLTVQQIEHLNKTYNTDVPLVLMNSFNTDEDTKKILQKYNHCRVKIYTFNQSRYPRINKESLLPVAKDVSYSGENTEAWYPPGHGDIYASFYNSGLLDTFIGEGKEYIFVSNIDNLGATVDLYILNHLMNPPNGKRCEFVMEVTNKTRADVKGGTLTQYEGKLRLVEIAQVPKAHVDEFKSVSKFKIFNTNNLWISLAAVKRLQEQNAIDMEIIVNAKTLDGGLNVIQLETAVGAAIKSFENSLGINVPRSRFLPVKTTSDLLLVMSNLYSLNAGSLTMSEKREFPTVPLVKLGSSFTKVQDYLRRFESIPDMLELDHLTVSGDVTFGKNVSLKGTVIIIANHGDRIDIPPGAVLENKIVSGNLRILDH
UniProt A6NFI3: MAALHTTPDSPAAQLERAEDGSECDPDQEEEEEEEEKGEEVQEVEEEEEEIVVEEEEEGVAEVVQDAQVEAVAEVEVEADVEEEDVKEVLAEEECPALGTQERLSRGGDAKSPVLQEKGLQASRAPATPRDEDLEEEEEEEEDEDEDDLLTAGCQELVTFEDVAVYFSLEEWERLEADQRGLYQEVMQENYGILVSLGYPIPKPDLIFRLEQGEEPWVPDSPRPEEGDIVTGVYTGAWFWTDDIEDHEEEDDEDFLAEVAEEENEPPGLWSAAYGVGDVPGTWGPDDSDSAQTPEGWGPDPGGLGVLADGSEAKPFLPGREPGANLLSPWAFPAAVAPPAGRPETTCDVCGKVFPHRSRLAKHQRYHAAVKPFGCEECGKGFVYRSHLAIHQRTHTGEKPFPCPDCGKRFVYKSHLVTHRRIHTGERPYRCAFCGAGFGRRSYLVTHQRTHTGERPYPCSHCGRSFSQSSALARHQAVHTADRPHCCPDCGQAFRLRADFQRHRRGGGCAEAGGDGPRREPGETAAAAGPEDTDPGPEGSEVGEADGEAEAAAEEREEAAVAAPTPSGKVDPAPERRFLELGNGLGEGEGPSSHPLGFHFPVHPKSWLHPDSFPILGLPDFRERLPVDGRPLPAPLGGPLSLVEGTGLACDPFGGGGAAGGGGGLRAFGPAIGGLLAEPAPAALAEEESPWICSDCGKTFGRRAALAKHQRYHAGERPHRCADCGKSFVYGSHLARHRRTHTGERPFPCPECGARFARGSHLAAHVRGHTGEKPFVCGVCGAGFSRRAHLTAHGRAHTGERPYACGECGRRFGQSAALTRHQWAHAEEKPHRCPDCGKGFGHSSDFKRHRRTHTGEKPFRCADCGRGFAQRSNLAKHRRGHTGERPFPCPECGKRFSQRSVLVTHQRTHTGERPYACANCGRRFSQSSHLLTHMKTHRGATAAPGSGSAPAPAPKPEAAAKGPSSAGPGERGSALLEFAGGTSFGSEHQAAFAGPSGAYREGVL
UniProt Q8N3P4: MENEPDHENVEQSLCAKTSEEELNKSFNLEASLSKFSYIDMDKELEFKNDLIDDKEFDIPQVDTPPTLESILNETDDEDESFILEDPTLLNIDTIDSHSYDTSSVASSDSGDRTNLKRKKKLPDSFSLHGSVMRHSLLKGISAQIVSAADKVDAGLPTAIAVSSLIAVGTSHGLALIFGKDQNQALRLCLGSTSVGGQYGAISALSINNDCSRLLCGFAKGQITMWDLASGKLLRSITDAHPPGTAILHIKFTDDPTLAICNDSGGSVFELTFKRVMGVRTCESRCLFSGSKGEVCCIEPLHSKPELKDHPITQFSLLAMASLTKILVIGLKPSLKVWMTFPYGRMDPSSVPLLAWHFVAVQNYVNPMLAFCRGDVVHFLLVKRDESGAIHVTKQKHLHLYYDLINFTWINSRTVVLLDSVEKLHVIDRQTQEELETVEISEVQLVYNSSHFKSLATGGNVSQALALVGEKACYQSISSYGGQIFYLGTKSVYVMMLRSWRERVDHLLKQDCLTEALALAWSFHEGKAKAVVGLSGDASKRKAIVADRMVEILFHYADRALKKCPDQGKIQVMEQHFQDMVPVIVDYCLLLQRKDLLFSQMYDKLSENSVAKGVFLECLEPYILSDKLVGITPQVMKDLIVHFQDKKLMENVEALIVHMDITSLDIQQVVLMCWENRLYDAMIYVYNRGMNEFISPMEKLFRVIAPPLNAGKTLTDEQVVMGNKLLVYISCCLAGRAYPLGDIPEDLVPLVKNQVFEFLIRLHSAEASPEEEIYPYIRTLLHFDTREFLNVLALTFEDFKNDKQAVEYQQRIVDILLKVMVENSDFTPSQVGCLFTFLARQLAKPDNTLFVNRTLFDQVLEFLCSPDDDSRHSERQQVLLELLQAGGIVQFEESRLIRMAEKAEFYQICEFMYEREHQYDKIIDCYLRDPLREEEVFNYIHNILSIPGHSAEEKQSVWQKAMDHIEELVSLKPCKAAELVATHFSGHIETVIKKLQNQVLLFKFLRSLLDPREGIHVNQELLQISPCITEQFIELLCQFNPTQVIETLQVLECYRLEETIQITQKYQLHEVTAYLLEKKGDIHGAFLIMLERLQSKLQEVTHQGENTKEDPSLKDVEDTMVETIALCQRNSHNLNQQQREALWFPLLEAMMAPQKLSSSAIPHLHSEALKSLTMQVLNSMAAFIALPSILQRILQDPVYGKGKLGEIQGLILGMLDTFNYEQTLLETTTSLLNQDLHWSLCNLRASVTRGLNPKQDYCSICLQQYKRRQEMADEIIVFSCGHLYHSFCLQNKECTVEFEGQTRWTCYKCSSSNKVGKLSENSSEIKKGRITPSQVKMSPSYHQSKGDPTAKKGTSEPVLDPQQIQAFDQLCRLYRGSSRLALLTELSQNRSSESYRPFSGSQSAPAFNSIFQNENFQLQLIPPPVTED
UniProt Q9Y6E0: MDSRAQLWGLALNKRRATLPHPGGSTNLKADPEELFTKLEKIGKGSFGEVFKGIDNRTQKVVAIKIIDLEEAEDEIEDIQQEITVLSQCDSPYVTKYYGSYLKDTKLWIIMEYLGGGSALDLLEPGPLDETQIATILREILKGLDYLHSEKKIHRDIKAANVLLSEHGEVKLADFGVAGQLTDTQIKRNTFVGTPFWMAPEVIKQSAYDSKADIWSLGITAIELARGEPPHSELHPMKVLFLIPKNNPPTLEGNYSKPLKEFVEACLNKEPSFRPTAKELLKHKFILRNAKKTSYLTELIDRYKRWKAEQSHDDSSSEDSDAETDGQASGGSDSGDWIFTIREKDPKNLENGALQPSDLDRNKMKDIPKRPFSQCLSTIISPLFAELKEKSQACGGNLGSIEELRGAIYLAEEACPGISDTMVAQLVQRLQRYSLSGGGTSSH
UniProt Q8NBQ5: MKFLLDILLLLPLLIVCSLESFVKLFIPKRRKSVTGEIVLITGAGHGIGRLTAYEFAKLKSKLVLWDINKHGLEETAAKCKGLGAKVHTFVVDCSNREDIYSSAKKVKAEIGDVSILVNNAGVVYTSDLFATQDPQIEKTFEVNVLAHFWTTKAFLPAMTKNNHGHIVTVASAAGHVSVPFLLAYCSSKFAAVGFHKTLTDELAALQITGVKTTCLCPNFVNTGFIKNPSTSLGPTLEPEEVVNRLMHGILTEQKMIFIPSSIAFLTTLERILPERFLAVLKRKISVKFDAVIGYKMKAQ
UniProt O75347: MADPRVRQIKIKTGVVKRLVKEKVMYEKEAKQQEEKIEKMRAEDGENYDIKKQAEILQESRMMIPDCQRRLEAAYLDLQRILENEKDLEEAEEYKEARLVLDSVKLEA
UniProt Q96RU3: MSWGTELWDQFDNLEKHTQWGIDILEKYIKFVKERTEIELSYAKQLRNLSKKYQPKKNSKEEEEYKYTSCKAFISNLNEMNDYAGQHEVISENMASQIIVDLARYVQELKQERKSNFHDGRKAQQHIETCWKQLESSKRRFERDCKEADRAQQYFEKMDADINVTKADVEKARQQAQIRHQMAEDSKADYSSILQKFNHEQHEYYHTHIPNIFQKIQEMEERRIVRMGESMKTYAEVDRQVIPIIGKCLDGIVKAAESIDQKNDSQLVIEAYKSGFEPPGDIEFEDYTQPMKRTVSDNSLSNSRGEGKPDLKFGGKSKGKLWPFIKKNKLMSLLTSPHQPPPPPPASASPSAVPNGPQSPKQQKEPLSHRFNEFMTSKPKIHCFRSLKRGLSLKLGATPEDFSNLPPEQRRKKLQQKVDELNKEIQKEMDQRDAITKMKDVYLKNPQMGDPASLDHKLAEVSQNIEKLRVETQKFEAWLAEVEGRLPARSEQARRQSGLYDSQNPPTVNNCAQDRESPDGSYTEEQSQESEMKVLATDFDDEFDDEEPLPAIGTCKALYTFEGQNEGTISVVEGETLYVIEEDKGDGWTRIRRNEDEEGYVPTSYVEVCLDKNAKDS
UniProt Q15043: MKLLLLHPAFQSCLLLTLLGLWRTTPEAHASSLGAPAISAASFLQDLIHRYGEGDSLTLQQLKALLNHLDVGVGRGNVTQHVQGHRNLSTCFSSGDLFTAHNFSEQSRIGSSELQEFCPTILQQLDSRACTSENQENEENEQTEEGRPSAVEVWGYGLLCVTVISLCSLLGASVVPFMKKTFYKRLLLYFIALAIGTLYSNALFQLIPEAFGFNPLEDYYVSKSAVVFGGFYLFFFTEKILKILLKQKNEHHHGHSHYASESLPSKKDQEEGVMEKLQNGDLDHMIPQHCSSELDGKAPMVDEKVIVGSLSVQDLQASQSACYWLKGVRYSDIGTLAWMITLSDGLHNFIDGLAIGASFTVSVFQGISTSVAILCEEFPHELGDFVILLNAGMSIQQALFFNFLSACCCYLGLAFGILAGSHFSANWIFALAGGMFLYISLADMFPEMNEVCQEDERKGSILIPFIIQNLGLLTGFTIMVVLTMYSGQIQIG

Compound: Nc1nc2c(ncn2[C@@H]2O[C@H](COP(=O)(O)OP(=O)(O)OP(=O)(O)O)[C@@H](O)[C@H]2O)c(=O)[nH]1 [guanosine triphosphate]
Assay: NP40-soluble protein abundance relative to vehicle (solubility fold change) (ratio); higher = more soluble protein in presence of GTP
Summary of the method: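 In three independent experiments, Jurkat crude lysate made by Dounce homogenisation was treated for 10 min at room temperature and then 3 min at 37 °C with eight concentrations ranging from 0.1 to 10 mM. It was then solubilised with 0.8% NP40 plus benzonase for 60 min at 4 °C and ultracentrifuged. The supernatant was TMT-labelled for LC-MS/MS, and each value is the fold change against the detergent-processed vehicle for the same replicate, using vsn-normalised intensities.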

| Target | NP40-soluble protein abundance (concentration: 0.1mM) | NP40-soluble protein abundance (concentration: 0.5mM) | NP40-soluble protein abundance (concentration: 1mM) | NP40-soluble protein abundance (concentration: 2mM) | NP40-soluble protein abundance (concentration: 4mM) | NP40-soluble protein abundance (concentration: 6mM) | NP40-soluble protein abundance (concentration: 8mM) | NP40-soluble protein abundance (concentration: 10mM) |
| --- | --- | --- | --- | --- | --- | --- | --- | --- |
| C9J185 and related entries (UniProt Q9NZJ5) | 1.03 ± 0.067 | 1.03 ± 0.025 | 1.05 ± 0.079 | 1.08 ± 0.086 | 1.07 ± 0.042 | 1.12 ± 0.03 | 1.07 ± 0.077 | 1.17 ± 0.028 |
| C9JDQ1 and related entries (UniProt Q13724) | 1.05 ± 0.021 | 1.04 ± 0.061 | 0.961 ± 0.018 | 0.995 ± 0.083 | 0.989 ± 0.038 | 0.978 ± 0.057 | 0.936 ± 0.024 | 0.9 ± 0.097 |
| B4E3Q4 and related entries (UniProt Q9NZK5) | 0.977 ± 0.046 | 0.9495 ± 0.0079 | 0.9269 ± 0.0091 | 0.954 ± 0.023 | 0.954 ± 0.075 | 0.941 ± 0.065 | 0.867 ± 0.032 | 0.878 ± 0.039 |
| B1AMW1 and related entries (UniProt P19256) | 0.879 ± 0.05 | 0.937 ± 0.095 | 0.973 ± 0.11 | 0.915 ± 0.064 | 0.979 ± 0.038 | 1.03 ± 0.088 | 0.952 ± 0.036 | 0.958 ± 0.047 |
| A8MUM1 and related entries (UniProt Q53HC9) | 1.09 ± 0.13 | 1.07 ± 0.071 | 1.02 ± 0.15 | 0.979 ± 0.087 | 1.03 ± 0.15 | 0.985 ± 0.084 | 0.97 ± 0.13 | 0.922 ± 0.11 |
| C9JV50 and related entries (UniProt Q9NTJ5) | 1.03 ± 0.037 | 1.03 ± 0.044 | 0.964 ± 0.032 | 0.972 ± 0.067 | 0.96 ± 0.036 | 0.953 ± 0.045 | 0.949 ± 0.012 | 0.91 ± 0.032 |
| E5RFJ1 and related entries (UniProt Q96MF7) | 1.01 ± 0.059 | 1.01 ± 0.056 | 1.05 ± 0.015 | 1.02 ± 0.1 | 0.98 ± 0.093 | 1 ± 0.054 | 1.05 ± 0.04 | 1.05 ± 0.077 |
| C9JIF9 and related entries (UniProt P13798) | 0.987 ± 0.02 | 1.03 ± 0.05 | 0.941 ± 0.03 | 0.938 ± 0.066 | 0.911 ± 0.045 | 0.957 ± 0.057 | 0.908 ± 0.025 | 0.884 ± 0.027 |
| C9JWG0 and related entries (UniProt Q16851) | 1.04 ± 0.03 | 1.04 ± 0.052 | 1 ± 0.046 | 1.01 ± 0.071 | 1.01 ± 0.042 | 1.01 ± 0.067 | 0.998 ± 0.057 | 0.983 ± 0.065 |
| ZNF316 (UniProt A6NFI3) | 1.05 ± 0.065 | 1.04 ± 0.12 | 1.02 ± 0.023 | 0.961 ± 0.034 | 0.939 ± 0.073 | 0.96 ± 0.12 | 1.07 ± 0.012 | 1.02 ± 0.042 |
| C9JJN9 and related entries (UniProt Q8N3P4) | 1.08 ± 0.054 | 1.04 ± 0.1 | 0.974 ± 0.083 | 1.04 ± 0.1 | 1.01 ± 0.074 | 0.99 ± 0.038 | 1.02 ± 0.062 | 1.02 ± 0.055 |
| B4DR80 and related entries (UniProt Q9Y6E0) | 1 ± 0.035 | 0.983 ± 0.059 | 1.03 ± 0.074 | 0.968 ± 0.094 | 0.944 ± 0.051 | 0.979 ± 0.076 | 0.979 ± 0.068 | 0.948 ± 0.065 |
| D6RCD0 and related entries (UniProt Q8NBQ5) | 1.07 ± 0.061 | 1.03 ± 0.15 | 0.909 ± 0.07 | 0.971 ± 0.15 | 0.931 ± 0.17 | 0.897 ± 0.13 | 0.89 ± 0.12 | 0.921 ± 0.087 |
| E5RGZ2 and related entries (UniProt Q6NT76) | 0.92 ± 0.04 | 0.877 ± 0.12 | 0.927 ± 0.052 | 0.903 ± 0.056 | 0.89 ± 0.073 | 0.963 ± 0.097 | 0.89 ± 0.033 | 0.918 ± 0.082 |
| E5RIW3 and related entries (UniProt O75347) | 0.955 ± 0.1 | 0.984 ± 0.12 | 0.956 ± 0.15 | 0.852 ± 0.15 | 0.835 ± 0.15 | 0.871 ± 0.19 | 0.873 ± 0.11 | 0.868 ± 0.11 |
| B5MCT9 and related entries (UniProt Q6ZWJ1) | 0.973 ± 0.074 | 0.948 ± 0.048 | 0.999 ± 0.06 | 0.97 ± 0.066 | 0.959 ± 0.13 | 0.979 ± 0.074 | 0.954 ± 0.099 | 0.956 ± 0.089 |
| D6RB08 and related entries (UniProt P14316) | 0.962 ± 0.05 | 1.04 ± 0.051 | 0.993 ± 0.022 | 0.973 ± 0.052 | 0.952 ± 0.048 | 0.971 ± 0.1 | 0.985 ± 0.024 | 1.06 ± 0.086 |
| B9ZVV8 and related entries (UniProt Q53H47) | 1.09 ± 0.061 | 1.03 ± 0.033 | 1.04 ± 0.081 | 1.01 ± 0.073 | 1.01 ± 0.058 | 1.02 ± 0.057 | 1.02 ± 0.041 | 1.01 ± 0.11 |
| A8MXF6 and related entries (UniProt Q9UNT1+Q9UBK7+B7ZBD5+A8MXF6) | 1.03 ± 0.038 | 1.03 ± 0.035 | 1.02 ± 0.032 | 1.01 ± 0.084 | 0.947 ± 0.046 | 0.955 ± 0.071 | 0.949 ± 0.053 | 0.94158 ± 0.00038 |
| E5RFH6 and related entries (UniProt P34913) | 0.994 ± 0.045 | 0.986 ± 0.063 | 0.966 ± 0.05 | 0.931 ± 0.051 | 0.901 ± 0.045 | 0.922 ± 0.032 | 0.893 ± 0.031 | 0.893 ± 0.022 |
| A8MTY9 and related entries (UniProt O14972) | 1.06 ± 0.1 | 1 ± 0.12 | 0.994 ± 0.079 | 0.988 ± 0.19 | 1.01 ± 0.2 | 1.02 ± 0.095 | 0.987 ± 0.16 | 1 ± 0.11 |
| B7ZC38 and related entries (UniProt Q9NR46) | 0.905 ± 0.057 | 0.851 ± 0.036 | 0.981 ± 0.069 | 0.962 ± 0.06 | 0.968 ± 0.11 | 0.968 ± 0.083 | 0.898 ± 0.15 | 0.936 ± 0.071 |
| B3KS98 and related entries (UniProt O15372) | 0.992 ± 0.07 | 1.01 ± 0.088 | 1.03 ± 0.075 | 1.08 ± 0.15 | 1.27 ± 0.25 | 1.42 ± 0.28 | 1.6 ± 0.34 | 1.8 ± 0.36 |
| B7ZL14 and related entries (UniProt Q96RU3) | 0.939 ± 0.039 | 0.96 ± 0.06 | 0.958 ± 0.062 | 0.929 ± 0.09 | 0.903 ± 0.074 | 0.929 ± 0.073 | 0.926 ± 0.04 | 0.924 ± 0.081 |
| E5RFZ8 and related entries (UniProt Q15043) | 0.95 ± 0.22 | 0.969 ± 0.23 | 0.952 ± 0.14 | 0.91 ± 0.15 | 0.943 ± 0.2 | 0.866 ± 0.14 | 0.898 ± 0.18 | 0.916 ± 0.25 |
| C9JMV9 and related entries (UniProt Q03154+C9JMV9) | 1.03 ± 0.012 | 1.03 ± 0.011 | 0.97 ± 0.078 | 0.924 ± 0.036 | 0.954 ± 0.019 | 0.933 ± 0.031 | 0.94 ± 0.05 | 0.956 ± 0.12 |

A section from the list above, for reference:

| Target | NP40-soluble protein abundance (concentration: 0.1mM) | NP40-soluble protein abundance (concentration: 0.5mM) | NP40-soluble protein abundance (concentration: 1mM) | NP40-soluble protein abundance (concentration: 2mM) | NP40-soluble protein abundance (concentration: 4mM) | NP40-soluble protein abundance (concentration: 6mM) | NP40-soluble protein abundance (concentration: 8mM) | NP40-soluble protein abundance (concentration: 10mM) |
| --- | --- | --- | --- | --- | --- | --- | --- | --- |
| E5RFZ8 and related entries (UniProt Q15043) | 0.95 ± 0.22 | 0.969 ± 0.23 | 0.952 ± 0.14 | 0.91 ± 0.15 | 0.943 ± 0.2 | 0.866 ± 0.14 | 0.898 ± 0.18 | 0.916 ± 0.25 |
| C9JMV9 and related entries (UniProt Q03154+C9JMV9) | 1.03 ± 0.012 | 1.03 ± 0.011 | 0.97 ± 0.078 | 0.924 ± 0.036 | 0.954 ± 0.019 | 0.933 ± 0.031 | 0.94 ± 0.05 | 0.956 ± 0.12 |
